Reference: patent US20140357549A1 (UNIVERSITY OF PITTSBURGH OF THE COMMONWEALTH SYSTEM OF …, published 2014)
These are yes or no findings as the source states them, for the method shown. Some entries that bind do so weakly or less than the wild type. For some of these results: Sequences can lack the tags named with a protein.

T1: Nox1 (UniProt Q9Y5S8 1-564, limits assumed)
T1 sequence (looked up): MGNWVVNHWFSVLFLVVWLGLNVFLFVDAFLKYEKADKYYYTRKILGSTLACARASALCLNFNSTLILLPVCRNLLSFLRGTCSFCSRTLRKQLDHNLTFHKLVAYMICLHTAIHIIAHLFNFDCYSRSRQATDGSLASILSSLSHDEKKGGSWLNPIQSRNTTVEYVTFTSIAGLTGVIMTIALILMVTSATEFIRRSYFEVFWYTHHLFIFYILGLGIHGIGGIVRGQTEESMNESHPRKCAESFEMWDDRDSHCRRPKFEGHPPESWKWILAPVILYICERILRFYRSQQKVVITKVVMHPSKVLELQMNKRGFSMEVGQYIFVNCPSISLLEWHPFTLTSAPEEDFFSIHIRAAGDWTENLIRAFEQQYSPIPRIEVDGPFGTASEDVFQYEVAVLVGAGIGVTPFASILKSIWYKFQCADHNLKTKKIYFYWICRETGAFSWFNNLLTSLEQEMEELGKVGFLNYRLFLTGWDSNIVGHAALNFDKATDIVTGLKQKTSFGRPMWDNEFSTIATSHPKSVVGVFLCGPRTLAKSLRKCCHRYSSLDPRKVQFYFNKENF


Columns and labels:
[1] = target: T1, Nox1; experiment: heading of Example 7 (ELISA, ICCS and FRET)
[2] = target: Nox1-YFP (UniProt Q9Y5S8); experiment: ICCS competition against R-NoxA1ds on Nox1-YFP
[3] = target: Nox1-YFP (UniProt Q9Y5S8); experiment: spectroscopy (ICCS) competition against rhodamine-labeled NoxA1ds
[4] = target: T1, Nox1; experiment: ELISA: biotin peptide on neutravidin plates, cell membranes added, Nox1 detected by rabbit anti-Nox1 antibody and FITC secondary antibody

binding [1] | binding [2] | binding [3] | binding [4] | Binder
binds | binds | binds | – | EPVDALGKAKV (C-terminal amide ([CONH2])) [NoxA1ds]
– | – | – | binds | EPVDALGKAKV (biotin tag (position not given); C-terminal amide as printed for NoxA1ds) [biotin-tagged NoxA1ds]
